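Enzyme assay of histidyl-tRNA synthetase; the read-out is not stated. Target: Histidine-tRNA ligase, Trypanosoma cruzi CL Brener (UniProt Q4DA54). Compounds at 30 µM. The record gives no direction; compounds that gave an IC50 in retests scored well above the rest, so higher reads as stronger inhibition. Size under these conditions: about 69,000 compounds, about 31 of them at 50% or above in at least one test.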

Sequences of proteins named here, by UniProt entry; tags and fusion partners are left off. Residues count along the entry.
UniProt Q4DA54, 1-478: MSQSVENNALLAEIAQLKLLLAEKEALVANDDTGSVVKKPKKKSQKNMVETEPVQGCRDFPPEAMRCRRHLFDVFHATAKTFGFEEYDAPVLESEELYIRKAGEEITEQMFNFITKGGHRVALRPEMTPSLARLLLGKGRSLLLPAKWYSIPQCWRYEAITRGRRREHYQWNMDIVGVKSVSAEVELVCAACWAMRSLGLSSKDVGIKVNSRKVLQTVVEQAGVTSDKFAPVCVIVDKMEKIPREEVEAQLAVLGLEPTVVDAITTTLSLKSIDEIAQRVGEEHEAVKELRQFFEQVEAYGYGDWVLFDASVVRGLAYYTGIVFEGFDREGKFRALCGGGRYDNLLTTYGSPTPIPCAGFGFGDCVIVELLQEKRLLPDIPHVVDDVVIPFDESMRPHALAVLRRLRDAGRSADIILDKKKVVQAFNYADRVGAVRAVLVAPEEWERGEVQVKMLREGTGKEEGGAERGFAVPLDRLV

Values are the deposited “Percent Effect”, in %.
The record does not define 0% and 100%; most values in the screen are far below 50% and negative numbers occur (in some assays of this library far below -100).
Compounds were drawn at random from those tested, without regard to their results.

| # | Compound | percent effect |
|---|---|---|
| 1 | `CC(C)NC(=O)C(C)S(=O)(=O)c1cc2c(cc1Cl)OCCO2` (centres unmarked) | 12.07 |
| 2 | `COC(=O)NCC(=O)N1CCCn2nc(CN3CC[C@H](F)C3)cc2C1` | -6.667 |
| 3 | `CCCn1cnnc1-c1nc2c([nH]1)CC(c1ccc(Cl)cc1)CNC2=O` (centres unmarked) | 7.263 |
| 4 | `COc1cc(C(C)=O)ccc1SCC(=O)Nc1cccc(C)n1` | 5.263 |
| 5 | `CSc1cc2c(cc1NC(=O)NCC(C)(C)C(N)=O)OCCO2` | 1.604 |
| 6 | `CCN1CCC(CC(=O)NCCc2nc(N)cc(O)n2)CC1` | 6.087 |
| 7 | `O=C(NCC1CC1)C1CCC2(CCN(C(=O)c3cccs3)CC2)O1` (centres unmarked) | -1.442 |
| 8 | `Cn1cccc1-c1cc(C(=O)N2CCCC2C(F)(F)F)[nH]n1` (centres unmarked) | 1.02 |
| 9 | `O=S(=O)(NCC1COc2ccccc2C1)N1CCCCC1` (centres unmarked) | 4.036 |
| 10 | `Cc1nc(NC(=O)C(C)N(C)Cc2cccc(C#N)c2)sc1C` (centres unmarked) | 0.8696 |
| 11 | `O=C(NCc1ccc(-n2cncn2)nc1)c1ccc2c(c1)CCO2` | 0.7519 |
| 12 | `CN(C)CCCNC(=O)c1cc(Br)c2c(c1)OCCO2` | 2.075 |
| 13 | `COCC(=O)N1CCC2(C1)c1ccccc1S(=O)(=O)N2C` (centres unmarked) | 3.333 |
| 14 | `Cc1nc2c(c(NCC(O)C(F)(F)F)n1)CCNCC2` (centres unmarked) | 3.867 |
| 15 | `O=C1OCCN1Cc1cccc(F)c1C(F)(F)F` | 4.04 |
| 16 | `Cc1nc(NCC(O)CN2CCCCCC2)c2c(C)nn(C)c2n1` (centres unmarked) | 9.914 |
| 17 | `Cc1ccc(C(=O)N2CCC(n3cc(CN)nn3)CC2)cc1F` | 8.287 |
| 18 | `COc1ccc(C)cc1Nc1nc2c(C)nn(C)c2c(=O)n1C` | 0 |
| 19 | `Cc1cc(N(C)C)nc(C2COCCN2Cc2nccn2C)n1` (centres unmarked) | 2.571 |
| 20 | `CNc1cc(C(=O)N(C)Cc2cc(-c3cccs3)n[nH]2)ccn1` | 2.513 |
| 21 | `Cc1nc(CN(C)CC(c2cccs2)N2CCOCC2)no1` (centres unmarked) | 8.772 |
| 22 | `Cc1ccc(N2CCc3ncnc(C4CC4)c3CC2)nn1` | 1.105 |
| 23 | `O=C(Nc1nccs1)NC1CCOc2ccccc21` (centres unmarked) | -20.41 |
| 24 | `Cc1ccn(-c2ccc(NCc3ccccc3F)nn2)n1` | -4.046 |
| 25 | `Cc1noc(C)c1CN(C)C(=O)c1ccc2c(c1O)OC(C)(C)C2` | 4.712 |
| 26 | `Cc1nc(Cc2ccccc2)nc2sc(C(=O)O)c(C)c12` | 8.911 |
| 27 | `CS(=O)(=O)CCN1CC(c2ccccc2)(c2ccccc2)CCC1=O` | -7.182 |
| 28 | `Cc1nn(C)c(C)c1C1CCCN1C(=O)CCCn1cccn1` (centres unmarked) | 0.7576 |
| 29 | `COc1cccc(OCC2CCCN(C(C)=O)C2)c1` (centres unmarked) | 0 |
| 30 | `CCCN1CCC(NC(=O)c2csc(C)c2-c2ccc(C)cc2)CC1` | 4.386 |
| 31 | `CCOC(=O)CNC(=O)N1CCN(c2ncccn2)CC1` | 0 |
| 32 | `Cc1ccc(NC2CCCN(Cc3ccc(Cl)cc3)C2)nn1` (centres unmarked) | 12.12 |
| 33 | `COc1ccc2c(c1)OCC(CNC(=O)c1cc[nH]c1C)C2` (centres unmarked) | 1.212 |
| 34 | `O=C(c1cnccn1)N1C[C@@H]2CC[C@H](C1)N(S(=O)(=O)c1cccnc1)C2` | -4.972 |
| 35 | `CCOc1ccc(N(CC(=O)c2ccccc2)C2=NCCCCC2)cc1` | -3.261 |
| 36 | `O=S1(=O)NCC2(CCN(c3ncccn3)CC2)COc2ccccc21` | 0 |
| 37 | `COc1cc(N2CC[C@@H](OC)[C@@H]2Cc2ccccc2)ncn1` | 5.464 |
| 38 | `COc1ccccc1S(=O)(=O)N1CCC2(CC1)OCCCC2O` (centres unmarked) | 0 |
| 39 | `Cc1nc(C2CCN(C[C@H](C)CO)CC2)cc(N2CCOCC2)n1` | 4.082 |
| 40 | `CCc1nc(C)sc1C(=O)N1CCN(c2ncccc2C)CC1` | 5.051 |
| 41 | `Cn1c(N2CCOCC2)nc2cc(C(=O)N3CCCOCC3)ccc21` | -2.232 |
| 42 | `O=C(NCCn1ccnc1)C1COCC(=O)N1Cc1ccccc1` (centres unmarked) | 0 |
| 43 | `COc1cccc(Cn2cc(C3=CCN(CCO)CC3)cn2)c1` | 13.43 |
| 44 | `CC1(C)CN(C(CNC2=NCCN2)c2ccc(Cl)cc2)CCO1` (centres unmarked) | 7.182 |
| 45 | `CC(C)c1cc(C(=O)N2CCN(C)[C@@H]3CS(=O)(=O)C[C@@H]32)no1` | 3.061 |
| 46 | `CC(C)c1n[nH]c(C(=O)Nc2ccncc2)c1Br` | 0 |
| 47 | `CCC(c1ccccc1)N1CCN(CCO)CC1` (centres unmarked) | 0 |
| 48 | `OCc1ccc(Cl)c(NCc2cccnc2)c1` | 3.261 |
| 49 | `O=C(NC[C@H]1C[C@@H]2CCN1C[C@@H]2CN1CCOCC1)Nc1ccccc1` | 14.85 |
| 50 | `Cc1ccc(NC2CCN(C(=O)CCc3ccco3)CC2)nn1` | 12.64 |
| 51 | `Cc1ccc(CN(C)CC2(O)CCCN(C)C2)o1` (centres unmarked) | 8.247 |
| 52 | `Cc1cc(C)n(C2CCCN(C(=O)c3c[nH]c(=O)c(Cl)c3)C2)n1` (centres unmarked) | 5.042 |
| 53 | `CC(=O)N1CC(C)CN(Cc2ccon2)c2ccccc21` (centres unmarked) | 4.902 |
| 54 | `O=C1CC(c2ccc(C(=O)O)cc2)c2ncn(-c3ccccc3)c2N1` (centres unmarked) | -2.732 |
| 55 | `O=S(=O)(c1ccc(Cl)cc1)N1C[C@@H]2CCN[C@@H]2C1` | 6.796 |
| 56 | `c1csc(N2CCN(Cc3nnnn3C3CC3)CC2)n1` | -3.665 |
| 57 | `CCc1nc(NCCc2nc(C)c(C)s2)c2cnn(C)c2n1` | 0 |
| 58 | `c1cncc(-c2nnc(C3(c4ccc5c(c4)OCO5)CCOCC3)o2)c1` | 1.538 |
| 59 | `CCc1nc(C)c([C@H]2CN(C)C[C@@H]2C(=O)Nc2cccc3cn[nH]c23)[nH]1` | 2.116 |
| 60 | `Cc1cc(CC(C)Nc2nc(C3CCCC3)nc3c2cnn3C)[nH]n1` (centres unmarked) | 4.082 |
| 61 | `CC(NC(=O)c1cc(-c2cccc(Cl)c2)no1)C(=O)N1CCCC1` (centres unmarked) | 3.261 |
| 62 | `Cc1cccc2cc(C(=O)N3CCSCC3)n(C)c12` | -2.174 |
| 63 | `COC(=O)C1CCN(C(=O)Cn2ccc(-c3ccc(F)cc3)n2)CC1` | 2.646 |
| 64 | `CC(C)(C)Cc1nnc(NCc2ccsc2)o1` | 0 |
| 65 | `CN(Cc1ccsc1)C(=O)Nc1cccc(N2CCOC2=O)c1` | 7.792 |
| 66 | `Cc1cncc(NCc2ccccc2N2CCOCC2)c1` | 6.316 |
| 67 | `CC1CN(Cc2ccccn2)CCN1c1ccc2nncn2n1` (centres unmarked) | -1.724 |
| 68 | `CC(C)(C)c1n[nH]c(C2CN(C(=O)C3=COCCC3)CCO2)n1` (centres unmarked) | 5.202 |
| 69 | `COC(=O)c1sc(NCc2ccc(N3CCC(O)CC3)c(F)c2)nc1Cl` | 4.762 |
| 70 | `CC(C)c1n[nH]c(C2CN(C(=O)COc3ccc(F)cc3)CCO2)n1` (centres unmarked) | -1.98 |
| 71 | `O=C(CN1CCOCC1)N1CCC(c2cc(N3CCCC3)ncn2)CC1` | 7.447 |
| 72 | `CNc1cc(N2CCCC2CNCc2cnc(C)s2)ncn1` (centres unmarked) | 7.647 |
| 73 | `COc1ccc(-c2n[nH]c(C)c2CC(=O)NCCN2CCOCC2)cc1` | 0.9901 |
| 74 | `Cc1ccsc1CN1CC[C@H]2O[C@H](C(=O)N3CCCO3)CC[C@H]21` | 2.941 |
| 75 | `COc1ccc(CNc2cccnc2-n2cccn2)cc1OC` | 9.231 |
| 76 | `Cc1nnc(CN(C)CCCOc2ccc(Cl)cc2)o1` | 7.563 |
| 77 | `CCC(=O)N1CCC2(CC1)CNC(=O)c1cc(C)ccc1O2` | 2.247 |
| 78 | `CC(C)(C)n1cc(C2=CCN(CCNC(N)=O)CC2)cn1` | 4.233 |
| 79 | `CC(=O)N(Cc1ncc(C)o1)C1CCN(Cc2noc(C)n2)C1` (centres unmarked) | 1.887 |
| 80 | `COCCCNC(=O)N1CCCC(c2nncn2C)C1` (centres unmarked) | -1.515 |
| 81 | `Cn1ccc2c(C(=O)N3CCC4(CCOC4)C3)cccc21` (centres unmarked) | 5.806 |
| 82 | `CCn1nc(C)c(CN(CCOC)Cc2ccccn2)c1C` | 4.663 |
| 83 | `Cc1ccc(OCCNC(=O)C(C)n2cncn2)cc1` (centres unmarked) | 3.008 |
| 84 | `CC(C)CCNc1nc(C(=O)NC2CC2)cs1` | 2.439 |
| 85 | `CN1CCC(N(Cc2ccccc2)C(=O)c2ccn3ccnc3c2)CC1` | 6.863 |

Once more, the final 9:

Compound,percent effect
CCC(=O)N1CCC2(CC1)CNC(=O)c1cc(C)ccc1O2,2.247
CC(C)(C)n1cc(C2=CCN(CCNC(N)=O)CC2)cn1,4.233
CC(=O)N(Cc1ncc(C)o1)C1CCN(Cc2noc(C)n2)C1 (centres unmarked),1.887
COCCCNC(=O)N1CCCC(c2nncn2C)C1 (centres unmarked),-1.515
Cn1ccc2c(C(=O)N3CCC4(CCOC4)C3)cccc21 (centres unmarked),5.806
CCn1nc(C)c(CN(CCOC)Cc2ccccn2)c1C,4.663
Cc1ccc(OCCNC(=O)C(C)n2cncn2)cc1 (centres unmarked),3.008
CC(C)CCNc1nc(C(=O)NC2CC2)cs1,2.439
CN1CCC(N(Cc2ccccc2)C(=O)c2ccn3ccnc3c2)CC1,6.863

Measurements from “University of Dundee, Small-Polar-MMV Screening Library” (2021), ChEMBL document CHEMBL3988442.